# Data as given in PubChem BioAssay AID540276 (National Center for Advancing Translational Sciences (NCATS), 2011).
# About 5,400 (1.8%) of roughly 300,000 compounds were called active. Inconclusive results, whose numbers are uncertain, are shown with a selection of clear calls. Calls come from the whole dose curve; tested in HEK293 cells. Where the call is inconclusive, the potency comes from a doubtful curve fit.
# Assay: qHTS for inhibitors of binding or entry into cells for Marburg Virus
# Conditions: Marburg virus pseudotyped entry inhibition, cell reporter; series mostly up to 37.8 µM
# Potency is the fitted concentration of half-maximal effect.
row,SMILES,Potency
1,N=C1C(c2nc3ccccc3s2)=C(O)CN1Cc1ccco1,"inconclusive: 4.61 µM [activator, partial curve, poor fit]"
2,COc1ccc(NCc2nnc(SCC(=O)c3ccc(OC)cc3)o2)cc1,"inconclusive: 1.3 µM [activator, single point]"
3,NC(=O)C(=O)NN=C1C2CC3CC(C2)CC1C3,"inconclusive: 1.58 µM [inhibitor, partial curve, poor fit]"
4,CCOC(=O)C1=C(Cc2ccc(OC)cc2)C(=O)c2ccccc2C1=O,"inconclusive: 10.3 µM [inhibitor, partial curve, poor fit]"
5,O=C(Nc1ccc(C2CC2(Cl)Cl)cc1)c1ccccc1Br (stereo not given),"inconclusive: 18.4 µM [activator, partial curve]"
6,O=C(Nc1ccccc1)Nc1nnc(Cc2ccccc2F)s1,inactive
7,O=C(NC1CCCC1)c1cnn2c(C(F)(F)F)cc(-c3ccco3)nc12,"inconclusive: 5.8 µM [inhibitor, partial curve, poor fit]"
8,CN(Cc1ccc(Cl)cc1)C(=O)CNC(=O)C12CC3CC(CC(C3)C1)C2,"inconclusive: 11.2 µM [inhibitor, single point]"
9,N#CC[n+]1cc(-c2ccc(Cl)cc2)n2c1CCC2,inactive
10,CNC(=S)Nc1ccc(Br)cc1,"inconclusive: 7.94 µM [activator, partial curve]"
11,CCn1cc(C(=O)OCC(=O)Nc2ccc(F)cc2F)c(=O)c2ccc(C)nc21,"inconclusive: 0.562 µM [activator, full curve, poor fit]"
12,COc1ccc(Br)cc1C1SCCN1S(C)(=O)=O (stereo not given),"inconclusive: 0.1 µM [activator, full curve, poor fit]"
13,Cc1ccc2nc(-c3ccc(NS(=O)(=O)c4ccc(F)cc4)cc3)sc2c1,"inconclusive: 32.6 µM [inhibitor, single point]"
14,CCOc1cccc2c1OC1(C)CC2NC(=O)N1c1ccc(OC)cc1 (stereo not given),"inconclusive: 0.355 µM [inhibitor, partial curve, poor fit]"
15,Cc1ccc(C(C(=O)NC2CCCC2)N(C(=O)c2csnn2)C2CC2)cc1 (stereo not given),"inconclusive: 5.62 µM [inhibitor, single point]"
16,COc1ccc(C(CC(=O)c2ccccc2)S(=O)(=O)c2ccccc2)cc1 (stereo not given),"inconclusive: 1.58 µM [activator, partial curve, poor fit]"
17,CCOc1ccccc1CC1C(=O)Nc2ccc(Br)cc21 (stereo not given),"inconclusive: 17.8 µM [inhibitor, partial curve, poor fit]"
18,COc1cccc(CNC(=O)C(NS(=O)(=O)c2ccc3c(c2)CCN3C(C)=O)C(C)C)c1 (stereo not given),"inconclusive: 35.5 µM [activator, single point]"
19,CCC(C)Oc1cccc(C(=O)Nc2ccccc2N2CCOCC2)c1 (stereo not given),inactive
20,O=C(NCC(=O)N1CCc2ccccc2C1)c1ccc(Cl)cc1Cl,inactive
21,COC(=O)c1ccccc1N(C)S(=O)(=O)c1cc2c(cc1C)OCC(=O)N2,"inconclusive: 25.1 µM [inhibitor, single point]"
22,COc1ccc(S(=O)(=O)Nc2cc3c4c(c2)CCC(=O)N4CCC3)cc1,"inconclusive: 1.26 µM [inhibitor, single point]"
23,ClCCn1cnc2c(SCc3ccccc3)ncnc21,active: 0.891 µM

# Pulled by compound from above (2):
row,SMILES,Potency
14,CCOc1cccc2c1OC1(C)CC2NC(=O)N1c1ccc(OC)cc1 (stereo not given),"inconclusive: 0.355 µM [inhibitor, partial curve, poor fit]"
19,CCC(C)Oc1cccc(C(=O)Nc2ccccc2N2CCOCC2)c1 (stereo not given),inactive

# (more compounds)

row,SMILES,Potency
1,CCC1CCCCN1S(=O)(=O)c1ccc(NC(=O)c2cccnc2)cc1 (stereo not given),inactive
2,C=CCNc1nc2c(c(=O)[nH]c(=O)n2C)n1CCOc1ccccc1,"inconclusive: 1 µM [inhibitor, single point]"
3,CCOc1ccc(-c2cc(C)[n+](CCO)c(-c3ccc(OCC)cc3)c2)cc1,"inconclusive: 20 µM [inhibitor, single point]"
4,COc1ccc(CNC(=O)c2nn(-c3ccccc3C)nc2CO)cc1,inactive
5,Cc1cc(C2=NNC(=NC3CC3)SC2)c(C)n1-c1ccccc1F,active: 0.13 µM
6,Cc1ccc2c(c1)c1c3n2CCCNC3CCC1 (stereo not given),"inconclusive: 29.1 µM [inhibitor, single point]"
7,Cc1cc(C)cc(NC(=O)/C(C#N)=C/c2cn(CC(=O)NCc3ccco3)c3ccccc23)c1,"inconclusive: 6.31 µM [inhibitor, full curve, poor fit]"
8,CCCCC(=O)Nc1ccc2nc(SCC(=O)N3CCCC3)sc2c1,"inconclusive: 15.8 µM [activator, single point]"
9,Clc1ccc2oc(-c3ccccc3)cc(=NCCCN3CCOCC3)c2c1,"inconclusive: 3.16 µM [activator, partial curve, poor fit]"
10,COc1ccccc1-c1cc(C(=O)N2CCCCC2C)no1 (stereo not given),inactive
11,CNc1c(NS(=O)(=O)c2ccc(OC)cc2)c(=O)oc2ccccc12,inactive
12,Cc1ccc(S(=O)(=O)NN2C(=O)c3ccccc3NC2(C)C)cc1,inactive
13,CNC(=O)C(=O)NCC1OCCN1S(=O)(=O)c1ccc([N+](=O)[O-])cc1 (stereo not given),"inconclusive: 35.5 µM [activator, single point]"
14,COc1ccc(NC(=S)Nc2ccccc2)cn1,inactive
15,COc1ccc(/C=C2\CCOC2=O)cc1,inactive
16,CC(C)(C)N(Cc1ccccc1)C(=O)CN1C(=O)c2ccccc2S1(=O)=O,inactive
17,CCOc1cc(CNCCc2ccccc2)ccc1OCC(=O)NC(C)(C)C,"inconclusive: 5.01 µM [inhibitor, full curve, poor fit]"
18,O=C(NC1CCCC1)C(c1ccncc1)N(C(=O)c1csnn1)c1ccc(F)cc1 (stereo not given),"inconclusive: 2 µM [inhibitor, full curve, poor fit]"
19,CCOC(=O)c1c(C(=O)OCC)c2c3ccccc3cc(C)n2c1C(=O)OC,inactive
20,CCOC(=O)C1CCCN(C(=O)CCC(=O)Nc2ccc3nc(N4CCOCC4)cc(C)c3c2)C1 (stereo not given),inactive
21,CCc1ccc(NC(=O)c2cnn(-c3ccccc3)c2-n2cccc2)cc1,"inconclusive: 35.5 µM [inhibitor, single point]"
22,CCOC(=O)N1CCC(N2Cc3cccc(C(=O)Nc4c(C)cccc4CC)c3C2=O)CC1,"inconclusive: 35.5 µM [inhibitor, single point]"

# Another view of two compounds above.
row | SMILES | Potency
1 | CCC1CCCCN1S(=O)(=O)c1ccc(NC(=O)c2cccnc2)cc1 (stereo not given) | inactive
13 | CNC(=O)C(=O)NCC1OCCN1S(=O)(=O)c1ccc([N+](=O)[O-])cc1 (stereo not given) | inconclusive: 35.5 µM [activator, single point]
